Measurements taken from PMC6294507.
Read-outs that look alike come from different tables or passages of the source. No constants are given. Whether binding was seen depends on the method and setting. Binding seen in cells or lysates may run through a third protein. These calls come from enrichment with a bait or labelling near it, and not all partners need be listed.

Protein sequences, listed by entry. Tags and fused reporters are not part of them. Residues count along the entry.
UniProt Q9BRJ7, residues 6-211: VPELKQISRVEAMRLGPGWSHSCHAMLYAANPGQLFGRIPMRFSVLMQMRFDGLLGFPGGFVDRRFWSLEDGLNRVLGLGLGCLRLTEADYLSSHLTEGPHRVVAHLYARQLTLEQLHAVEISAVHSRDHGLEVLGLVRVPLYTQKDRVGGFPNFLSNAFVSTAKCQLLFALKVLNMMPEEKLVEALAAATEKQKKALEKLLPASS
UniProt P11021, residues 19-654: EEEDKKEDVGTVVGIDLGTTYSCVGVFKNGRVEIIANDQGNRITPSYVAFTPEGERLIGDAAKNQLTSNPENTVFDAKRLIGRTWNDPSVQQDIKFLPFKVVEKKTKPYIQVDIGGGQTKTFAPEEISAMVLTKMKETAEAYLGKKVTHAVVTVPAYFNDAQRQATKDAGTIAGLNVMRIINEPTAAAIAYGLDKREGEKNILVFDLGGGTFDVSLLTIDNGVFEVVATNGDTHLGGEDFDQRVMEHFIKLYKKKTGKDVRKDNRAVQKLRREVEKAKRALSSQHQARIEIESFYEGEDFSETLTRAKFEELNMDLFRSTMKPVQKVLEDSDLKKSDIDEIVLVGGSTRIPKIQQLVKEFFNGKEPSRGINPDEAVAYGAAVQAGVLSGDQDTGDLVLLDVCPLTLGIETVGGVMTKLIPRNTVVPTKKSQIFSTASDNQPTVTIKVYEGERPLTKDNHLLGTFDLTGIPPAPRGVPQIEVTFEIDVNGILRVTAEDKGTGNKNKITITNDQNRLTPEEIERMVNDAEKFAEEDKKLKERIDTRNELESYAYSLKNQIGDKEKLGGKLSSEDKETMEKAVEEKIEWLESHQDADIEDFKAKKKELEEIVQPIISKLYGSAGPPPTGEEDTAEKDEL
UniProt O95816: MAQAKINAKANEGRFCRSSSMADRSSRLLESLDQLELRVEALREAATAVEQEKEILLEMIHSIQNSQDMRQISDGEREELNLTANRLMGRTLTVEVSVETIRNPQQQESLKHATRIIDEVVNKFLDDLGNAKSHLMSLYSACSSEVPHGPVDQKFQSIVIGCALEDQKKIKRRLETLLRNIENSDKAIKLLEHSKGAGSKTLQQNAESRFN
UniProt P11142: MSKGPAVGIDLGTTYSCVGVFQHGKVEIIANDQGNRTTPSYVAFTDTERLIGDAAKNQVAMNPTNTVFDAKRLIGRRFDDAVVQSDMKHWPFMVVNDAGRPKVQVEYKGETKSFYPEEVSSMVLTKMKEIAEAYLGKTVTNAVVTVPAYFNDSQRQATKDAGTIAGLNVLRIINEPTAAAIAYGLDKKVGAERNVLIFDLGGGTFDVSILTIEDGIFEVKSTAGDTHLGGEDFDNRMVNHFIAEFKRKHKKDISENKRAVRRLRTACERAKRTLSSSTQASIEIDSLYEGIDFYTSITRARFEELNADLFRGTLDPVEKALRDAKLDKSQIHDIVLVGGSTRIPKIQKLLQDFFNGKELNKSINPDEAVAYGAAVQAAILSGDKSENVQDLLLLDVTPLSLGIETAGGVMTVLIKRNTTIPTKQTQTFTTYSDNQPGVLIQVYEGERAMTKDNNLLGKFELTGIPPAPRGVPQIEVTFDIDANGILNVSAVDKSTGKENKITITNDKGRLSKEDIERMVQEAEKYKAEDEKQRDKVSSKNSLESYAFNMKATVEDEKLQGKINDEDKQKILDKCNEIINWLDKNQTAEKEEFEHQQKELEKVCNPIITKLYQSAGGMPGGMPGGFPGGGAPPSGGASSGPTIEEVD
UniProt Q01650: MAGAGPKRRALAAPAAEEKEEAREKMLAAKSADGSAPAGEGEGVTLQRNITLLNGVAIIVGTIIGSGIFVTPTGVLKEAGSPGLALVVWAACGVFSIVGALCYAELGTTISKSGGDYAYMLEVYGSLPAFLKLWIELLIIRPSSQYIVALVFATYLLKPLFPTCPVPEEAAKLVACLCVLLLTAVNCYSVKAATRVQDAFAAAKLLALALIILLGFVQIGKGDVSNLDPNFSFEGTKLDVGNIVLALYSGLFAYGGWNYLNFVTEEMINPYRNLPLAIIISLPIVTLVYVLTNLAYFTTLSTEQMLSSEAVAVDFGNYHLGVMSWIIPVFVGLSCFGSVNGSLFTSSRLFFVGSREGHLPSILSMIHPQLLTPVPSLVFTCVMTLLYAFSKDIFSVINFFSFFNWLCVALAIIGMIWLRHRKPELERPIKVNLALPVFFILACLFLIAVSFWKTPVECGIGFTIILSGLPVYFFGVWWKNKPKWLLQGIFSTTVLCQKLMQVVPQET
UniProt P48643: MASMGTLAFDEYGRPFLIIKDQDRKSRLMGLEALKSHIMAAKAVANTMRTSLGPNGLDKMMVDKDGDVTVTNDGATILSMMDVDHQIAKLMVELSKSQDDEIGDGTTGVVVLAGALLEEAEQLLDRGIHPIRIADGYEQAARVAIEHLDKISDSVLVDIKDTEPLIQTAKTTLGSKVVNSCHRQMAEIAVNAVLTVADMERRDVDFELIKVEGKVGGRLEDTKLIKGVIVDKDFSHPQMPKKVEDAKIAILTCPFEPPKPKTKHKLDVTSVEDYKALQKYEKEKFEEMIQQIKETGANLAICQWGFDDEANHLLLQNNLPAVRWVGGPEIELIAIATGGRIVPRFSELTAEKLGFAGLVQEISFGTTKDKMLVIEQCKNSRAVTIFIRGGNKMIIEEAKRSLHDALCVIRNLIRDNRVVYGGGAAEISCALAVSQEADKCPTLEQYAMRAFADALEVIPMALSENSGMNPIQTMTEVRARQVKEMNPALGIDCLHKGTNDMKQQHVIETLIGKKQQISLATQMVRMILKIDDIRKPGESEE
UniProt Q99832: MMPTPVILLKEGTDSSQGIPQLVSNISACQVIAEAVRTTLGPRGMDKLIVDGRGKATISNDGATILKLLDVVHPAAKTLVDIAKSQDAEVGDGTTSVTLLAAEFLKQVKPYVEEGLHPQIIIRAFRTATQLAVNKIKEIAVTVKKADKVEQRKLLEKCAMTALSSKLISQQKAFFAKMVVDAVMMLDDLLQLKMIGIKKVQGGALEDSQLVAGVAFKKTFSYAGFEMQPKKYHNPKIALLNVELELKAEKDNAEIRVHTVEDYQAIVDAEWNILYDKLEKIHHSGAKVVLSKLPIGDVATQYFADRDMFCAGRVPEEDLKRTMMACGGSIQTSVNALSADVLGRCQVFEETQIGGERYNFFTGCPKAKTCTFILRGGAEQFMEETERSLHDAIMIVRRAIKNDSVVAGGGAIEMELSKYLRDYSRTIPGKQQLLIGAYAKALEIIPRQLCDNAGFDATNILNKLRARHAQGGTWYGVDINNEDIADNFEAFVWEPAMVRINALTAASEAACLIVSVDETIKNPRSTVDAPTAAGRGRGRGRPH
UniProt P50990: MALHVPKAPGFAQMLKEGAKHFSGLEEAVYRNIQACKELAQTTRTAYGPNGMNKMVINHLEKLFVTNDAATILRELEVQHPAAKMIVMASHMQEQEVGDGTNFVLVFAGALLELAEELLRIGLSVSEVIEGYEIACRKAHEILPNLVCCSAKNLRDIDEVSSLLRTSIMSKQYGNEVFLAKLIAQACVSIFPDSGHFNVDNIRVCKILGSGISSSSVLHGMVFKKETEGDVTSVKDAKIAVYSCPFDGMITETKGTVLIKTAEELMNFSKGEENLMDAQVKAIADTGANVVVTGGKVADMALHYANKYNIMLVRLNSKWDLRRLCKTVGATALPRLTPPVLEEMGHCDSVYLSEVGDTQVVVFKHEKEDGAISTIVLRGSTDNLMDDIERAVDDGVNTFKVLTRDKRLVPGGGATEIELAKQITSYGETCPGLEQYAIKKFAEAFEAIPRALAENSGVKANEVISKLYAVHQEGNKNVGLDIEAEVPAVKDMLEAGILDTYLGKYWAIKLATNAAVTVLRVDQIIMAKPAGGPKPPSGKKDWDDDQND
UniProt P68366: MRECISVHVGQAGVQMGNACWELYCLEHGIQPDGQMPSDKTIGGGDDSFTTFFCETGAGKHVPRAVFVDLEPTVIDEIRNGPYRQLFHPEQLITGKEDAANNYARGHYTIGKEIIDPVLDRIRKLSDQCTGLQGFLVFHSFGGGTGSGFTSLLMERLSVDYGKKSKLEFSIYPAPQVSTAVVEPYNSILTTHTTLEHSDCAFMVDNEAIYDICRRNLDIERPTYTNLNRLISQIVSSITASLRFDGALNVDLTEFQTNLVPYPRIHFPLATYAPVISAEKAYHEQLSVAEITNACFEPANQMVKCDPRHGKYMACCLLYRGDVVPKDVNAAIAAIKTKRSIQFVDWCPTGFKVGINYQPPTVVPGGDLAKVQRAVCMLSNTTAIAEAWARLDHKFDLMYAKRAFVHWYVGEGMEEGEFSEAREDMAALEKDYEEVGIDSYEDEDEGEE
UniProt Q12888: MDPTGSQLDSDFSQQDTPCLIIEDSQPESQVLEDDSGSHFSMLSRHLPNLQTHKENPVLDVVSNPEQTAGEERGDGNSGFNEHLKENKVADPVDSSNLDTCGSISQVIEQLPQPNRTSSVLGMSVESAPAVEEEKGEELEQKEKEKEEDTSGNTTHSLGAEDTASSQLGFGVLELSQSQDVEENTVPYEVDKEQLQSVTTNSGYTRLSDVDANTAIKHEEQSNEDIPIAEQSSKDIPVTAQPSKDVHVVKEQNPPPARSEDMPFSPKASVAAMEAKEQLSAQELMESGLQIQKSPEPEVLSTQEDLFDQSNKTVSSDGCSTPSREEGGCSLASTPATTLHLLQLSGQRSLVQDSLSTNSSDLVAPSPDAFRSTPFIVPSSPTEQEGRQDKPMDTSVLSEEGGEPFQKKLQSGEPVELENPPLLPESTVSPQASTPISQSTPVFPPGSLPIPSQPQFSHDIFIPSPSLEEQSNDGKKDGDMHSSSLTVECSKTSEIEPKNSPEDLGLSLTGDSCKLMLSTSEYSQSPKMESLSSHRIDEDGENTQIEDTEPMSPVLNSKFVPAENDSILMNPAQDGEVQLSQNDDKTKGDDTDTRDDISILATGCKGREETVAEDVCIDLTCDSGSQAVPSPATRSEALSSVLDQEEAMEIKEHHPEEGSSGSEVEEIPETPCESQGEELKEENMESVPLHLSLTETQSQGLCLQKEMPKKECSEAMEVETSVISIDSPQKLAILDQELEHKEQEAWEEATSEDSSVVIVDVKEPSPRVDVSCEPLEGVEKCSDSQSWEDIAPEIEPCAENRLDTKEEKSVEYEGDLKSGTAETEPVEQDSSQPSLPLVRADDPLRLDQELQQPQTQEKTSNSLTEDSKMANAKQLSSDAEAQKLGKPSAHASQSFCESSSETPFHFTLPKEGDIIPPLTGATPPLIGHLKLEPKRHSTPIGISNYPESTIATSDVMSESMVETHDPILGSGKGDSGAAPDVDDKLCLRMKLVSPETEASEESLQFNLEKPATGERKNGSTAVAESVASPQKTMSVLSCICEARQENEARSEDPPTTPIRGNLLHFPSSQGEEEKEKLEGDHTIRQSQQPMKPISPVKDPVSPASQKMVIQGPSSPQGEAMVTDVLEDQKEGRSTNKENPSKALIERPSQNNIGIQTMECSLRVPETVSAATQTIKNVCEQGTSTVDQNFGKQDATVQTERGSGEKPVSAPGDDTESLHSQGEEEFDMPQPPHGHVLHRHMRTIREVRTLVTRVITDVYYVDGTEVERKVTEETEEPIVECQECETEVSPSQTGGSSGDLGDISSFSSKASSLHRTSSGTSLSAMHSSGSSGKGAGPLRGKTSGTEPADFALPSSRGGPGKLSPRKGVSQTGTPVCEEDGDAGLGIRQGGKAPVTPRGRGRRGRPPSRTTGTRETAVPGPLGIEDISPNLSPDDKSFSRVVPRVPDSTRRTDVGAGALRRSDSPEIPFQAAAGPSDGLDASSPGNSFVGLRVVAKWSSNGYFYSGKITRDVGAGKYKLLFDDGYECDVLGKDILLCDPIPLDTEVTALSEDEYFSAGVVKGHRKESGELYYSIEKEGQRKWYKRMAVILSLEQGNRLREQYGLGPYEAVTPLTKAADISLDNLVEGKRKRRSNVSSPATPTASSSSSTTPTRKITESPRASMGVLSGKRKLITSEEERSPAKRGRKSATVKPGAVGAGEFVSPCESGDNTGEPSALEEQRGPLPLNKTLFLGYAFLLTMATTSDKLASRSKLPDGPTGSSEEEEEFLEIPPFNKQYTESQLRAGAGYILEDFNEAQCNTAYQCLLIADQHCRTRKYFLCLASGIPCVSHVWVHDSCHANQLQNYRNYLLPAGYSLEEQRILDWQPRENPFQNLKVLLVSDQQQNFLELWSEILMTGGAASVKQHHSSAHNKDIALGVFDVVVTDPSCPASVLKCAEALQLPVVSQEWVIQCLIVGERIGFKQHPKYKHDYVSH
UniProt Q96DE0: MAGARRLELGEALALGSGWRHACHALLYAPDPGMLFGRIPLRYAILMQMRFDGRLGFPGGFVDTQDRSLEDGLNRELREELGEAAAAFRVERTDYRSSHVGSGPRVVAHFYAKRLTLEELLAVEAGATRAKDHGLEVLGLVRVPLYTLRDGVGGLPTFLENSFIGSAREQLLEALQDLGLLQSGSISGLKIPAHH

B1: Serine/threonine-protein phosphatase 6 catalytic subunit (enzyme, UniProt O00743 1-305)
chain: MAPLDLDKYVEIARLCKYLPENDLKRLCDYVCDLLLEESNVQPVSTPVTVCGDIHGQFYDLCELFRTGGQVPDTNYIFMGDFVDRGYYSLETFTYLLALKAKWPDRITLLRGNHESRQITQVYGFYDECQTKYGNANAWRYCTKVFDMLTVAALIDEQILCVHGGLSPDIKTLDQIRTIERNQEIPHKGAFCDLVWSDPEDVDTWAISPRGAGWLFGAKVTNEFVHINNLKLICRAHQLVHEGYKFMFDEKLVTVWSAPNYCYRCGNIASIMVFKDVNTREPKLFRAVPDSERVIPPRTTTPYFL
B2: Serine/threonine-protein phosphatase 6 regulatory ankyrin repeat subunit A (protein, UniProt O15084 1-1053)
chain: MAFLKLRDQPSLVQAIFNGDPDEVRALIFKKEDVNFQDNEKRTPLHAAAYLGDAEIIELLILSGARVNAKDSKWLTPLHRAVASCSEEAVQVLLKHSADVNARDKNWQTPLHIAAANKAVKCAEALVPLLSNVNVSDRAGRTALHHAAFSGHGEMVKLLLSRGANINAFDKKDRRAIHWAAYMGHIEVVKLLVSHGAEVTCKDKKSYTPLHAAASSGMISVVKYLLDLGVDMNEPNAYGNTPLHVACYNGQDVVVNELIDCGAIVNQKNEKGFTPLHFAAASTHGALCLELLVGNGADVNMKSKDGKTPLHMTALHGRFSRSQTIIQSGAVIDCEDKNGNTPLHIAARYGHELLINTLITSGADTAKRGIHGMFPLHLAALSGFSDCCRKLLSSGFDIDTPDDFGRTCLHAAAAGGNLECLNLLLNTGADFNKKDKFGRSPLHYAAANCNYQCLFALVGSGASVNDLDERGCTPLHYAATSDTDGKCLEYLLRNDANPGIRDKQGYNAVHYSAAYGHRLCLQLIASETPLDVLMETSGTDMLSDSDNRATISPLHLAAYHGHHQALEVLVQSLLDLDVRNSSGRTPLDLAAFKGHVECVDVLINQGASILVKDYILKRTPIHAAATNGHSECLRLLIGNAEPQNAVDIQDGNGQTPLMLSVLNGHTDCVYSLLNKGANVDAKDKWGRTALHRGAVTGHEECVDALLQHGAKCLLRDSRGRTPIHLSAACGHIGVLGALLQSAASMDANPATADNHGYTALHWACYNGHETCVELLLEQEVFQKTEGNAFSPLHCAVINDNEGAAEMLIDTLGASIVNATDSKGRTPLHAAAFTDHVECLQLLLSHNAQVNSVDSTGKTPLMMAAENGQTNTVEMLVSSASAELTLQDNSKNTALHLACSKGHETSALLILEKITDRNLINATNAALQTPLHVAARNGLTMVVQELLGKGASVLAVDENGYTPALACAPNKDVADCLALILATMMPVSSSSPLSSLTFNAINRYTNTSKTVSFEALPIMRNEPSSYCSFNNIGGEQEYLYTDVDELNDSDSETY
B3: Serine/threonine-protein phosphatase 6 regulatory subunit 3 (protein, UniProt Q5H9R7 1-873)
chain: MFWKFDLHSSSHIDTLLEREDVTLKELMDEEDVLQECKAQNRKLIEFLLKAECLEDLVSFIIEEPPQDMDEKIRYKYPNISCELLTSDVSQMNDRLGEDESLLMKLYSFLLNDSPLNPLLASFFSKVLSILISRKPEQIVDFLKKKHDFVDLIIKHIGTSAIMDLLLRLLTCIEPPQPRQDVLNWLNEEKIIQRLVEIVHPSQEEDRHSNASQSLCEIVRLSRDQMLQIQNSTEPDPLLATLEKQEIIEQLLSNIFHKEKNESAIVSAIQILLTLLETRRPTFEGHIEICPPGMSHSACSVNKSVLEAIRGRLGSFHELLLEPPKKSVMKTTWGVLDPPVGNTRLNVIRLISSLLQTNTSSINGDLMELNSIGVILNMFFKYTWNNFLHTQVEICIALILASPFENTENATITDQDSTGDNLLLKHLFQKCQLIERILEAWEMNEKKQAEGGRRHGYMGHLTRIANCIVHSTDKGPNSALVQQLIKDLPDEVRERWETFCTSSLGETNKRNTVDLVTTCHIHSSSDDEIDFKETGFSQDSSLQQAFSDYQMQQMTSNFIDQFGFNDEKFADQDDIGNVSFDRVSDINFTLNTNESGNIALFEACCKERIQQFDDGGSDEEDIWEEKHIAFTPESQRRSSSGSTDSEESTDSEEEDGAKQDLFEPSSANTEDKMEVDLSEPPNWSANFDVPMETTHGAPLDSVGSDVWSTEEPMPTKETGWASFSEFTSSLSTKDSLRSNSPVEMETSTEPMDPLTPSAAALAVQPEAAGSVAMEASSDGEEDAESTDKVTETVMNGGMKETLSLTVDAKTETAVFKSEEGKLSTSQDAACKDAEECPETAEAKCAAPRPPSSSPEQRTGQPSAPGDTSVNGPV
B4: Heat shock protein 75 kDa, mitochondrial (endogenous TRAP1) (protein, UniProt Q12931 60-704)
chain: STQTAEDKEEPLHSIISSTESVQGSTSKHEFQAETKKLLDIVARSLYSEKEVFIRELISNASDALEKLRHKLVSDGQALPEMEIHLQTNAEKGTITIQDTGIGMTQEELVSNLGTIARSGSKAFLDALQNQAEASSKIIGQFGVGFYSAFMVADRVEVYSRSAAPGSLGYQWLSDGSGVFEIAEASGVRTGTKIIIHLKSDCKEFSSEARVRDVVTKYSNFVSFPLYLNGRRMNTLQAIWMMDPKDVREWQHEEFYRYVAQAHDKPRYTLHYKTDAPLNIRSIFYVPDMKPSMFDVSRELGSSVALYSRKVLIQTKATDILPKWLRFIRGVVDSEDIPLNLSRELLQESALIRKLRDVLQQRLIKFFIDQSKKDAEKYAKFFEDYGLFMREGIVTATEQEVKEDIAKLLRYESSALPSGQLTSLSEYASRMRAGTRNIYYLCAPNRHLAEHSPYYEAMKKKDTEVLFCFEQFDELTLLHLREFDKKKLISVETDIVVDHYKEEKFEDRSPAAECLSEKETEELMAWMRNVLGSRVTNVKVTLRLDTHPAMVTVLEMGAARHFLRMQQLAKTQEERAQLLQPTLEINPRHALIKKLNQLRASEPGLAQLLVDQIYENAMIAAGLVDDPRAMVGRLNELLVKALERH
B5: Heterogeneous nuclear ribonucleoprotein H3 (protein, UniProt P31942 1-346)
chain: MDWVMKHNGPNDASDGTVRLRGLPFGCSKEEIVQFFQGLEIVPNGITLTMDYQGRSTGEAFVQFASKEIAENALGKHKERIGHRYIEIFRSSRSEIKGFYDPPRRLLGQRPGPYDRPIGGRGGYYGAGRGSMYDRMRRGGDGYDGGYGGFDDYGGYNNYGYGNDGFDDRMRDGRGMGGHGYGGAGDASSGFHGGHFVHMRGLPFRATENDIANFFSPLNPIRVHIDIGADGRATGEADVEFVTHEDAVAAMSKDKNNMQHRYIELFLNSTPGGGSGMGGSGMGGYGRDGMDNQGGYGSVGRMGMGNNYSGGYGTPDGLGGYGRGGGGSGGYYGQGGMSGGGWRGMY
B6: Mitochondrial dicarboxylate carrier (protein, UniProt Q9UBX3 1-287)
chain: MAAEARVSRWYFGGLASCGAACCTHPLDLLKVHLQTQQEVKLRMTGMALRVVRTDGILALYSGLSASLCRQMTYSLTRFAIYETVRDRVAKGSQGPLPFHEKVLLGSVSGLAGGFVGTPADLVNVRMQNDVKLPQGQRRNYAHALDGLYRVAREEGLRRLFSGATMASSRGALVTVGQLSCYDQAKQLVLSTGYLSDNIFTHFVASFIAGGCATFLCQPLDVLKTRLMNSKGEYQGVFHCAVETAKLGPLAFYKGLVPAGIRLIPHTVLTFVFLEQLRKNFGIKVPS
B7: T-complex protein 1 subunit beta (protein, UniProt P78371 1-535)
chain: MASLSLAPVNIFKAGADEERAETARLTSFIGAIAIGDLVKSTLGPKGMDKILLSSGRDASLMVTNDGATILKNIGVDNPAAKVLVDMSRVQDDEVGDGTTSVTVLAAELLREAESLIAKKIHPQTIIAGWREATKAAREALLSSAVDHGSDEVKFRQDLMNIAGTTLSSKLLTHHKDHFTKLAVEAVLRLKGSGNLEAIHIIKKLGGSLADSYLDEGFLLDKKIGVNQPKRIENAKILIANTGMDTDKIKIFGSRVRVDSTAKVAEIEHAEKEKMKEKVERILKHGINCFINRQLIYNYPEQLFGAAGVMAIEHADFAGVERLALVTGGEIASTFDHPELVKLGSCKLIEEVMIGEDKLIHFSGVALGEACTIVLRGATQQILDEAERSLHDALCVLAQTVKDSRTVYGGGCSEMLMAHAVTQLANRTPGKEAVAMESYAKALRMLPTIIADNAGYDSADLVAQLRAAHSEGNTTAGLDMREGTIGDMAILGITESFQVKRQVLLSAAEAAEVILRVDNIIKAAPRKRVPDHHPC
B8: Monocarboxylate transporter 4 (protein, UniProt O15427 1-465)
chain: MGGAVVDEGPTGVKAPDGGWGWAVLFGCFVITGFSYAFPKAVSVFFKELIQEFGIGYSDTAWISSILLAMLYGTGPLCSVCVNRFGCRPVMLVGGLFASLGMVAASFCRSIIQVYLTTGVITGLGLALNFQPSLIMLNRYFSKRRPMANGLAAAGSPVFLCALSPLGQLLQDRYGWRGGFLILGGLLLNCCVCAALMRPLVVTAQPGSGPPRPSRRLLDLSVFRDRGFVLYAVAASVMVLGLFVPPVFVVSYAKDLGVPDTKAAFLLTILGFIDIFARPAAGFVAGLGKVRPYSVYLFSFSMFFNGLADLAGSTAGDYGGLVVFCIFFGISYGMVGALQFEVLMAIVGTHKFSSAIGLVLLMEAVAVLVGPPSGGKLLDATHVYMYVFILAGAEVLTSSLILLLGNFFCIRKKPKEPQPEVAAAEEEKLHKPPADSGVDLREVEHFLKAEPEKNGEVVHTPETSV

What was measured:
[1] = biological target: SDOS-eGFP (human) (UniProt Q9BRJ7); assay: affinity purification with mass spectrometry; eGFP-fusion proteins captured from HeLa Flp In TRex lysates on GFP-Trap agarose beads, 2 h, 4 C; lysis buffer 150 mM NaCl, 10 mM Tris-HCl pH 7.5, 1% Triton X-100, 5 mM MgCl2, 5 mM DTT; RNase A during the second wash; label-free quantitative proteomics against unfused eGFP
[2] = biological target: SDOS-eGFP (human) (UniProt Q9BRJ7); assay: as above; remark: listed apart in the source

Molecule | binding [1] | binding [2]
78 kDa glucose-regulated protein (from UniProt P11021 19-654) | binds | 
BAG family molecular chaperone regulator 2 (from UniProt O95816 1-211) | binds | 
Heat shock cognate 71 kDa protein (from UniProt P11142 1-646) | binds | 
Histone deacetylase 6 (from UniProt Q9UBN7 1-1215) (enzyme) | binds | 
Laminin subunit alpha-1 (from UniProt P25391 18-3075) | binds | 
Large neutral amino acids transporter small subunit 1 (from UniProt Q01650 1-507) | binds | 
Sequestosome-1 (from UniProt Q13501 1-440) | binds | 
T-complex protein 1 subunit epsilon (from UniProt P48643 1-541) | binds | 
T-complex protein 1 subunit eta (from UniProt Q99832 1-543) | binds | 
T-complex protein 1 subunit theta (from UniProt P50990 1-548) | binds | 
Transcription elongation factor A protein-like 1 (from UniProt Q15170 1-159) | binds | 
Tubulin alpha-4A chain (from UniProt P68366 1-448) | binds | 
Tubulin beta-8 chain (from UniProt Q3ZCM7 1-444) | binds | 
Tumor suppressor p53-binding protein 1 (from UniProt Q12888 1-1972) | binds | 
U8 snoRNA-decapping enzyme (from UniProt Q96DE0 1-195) | binds | 
Ubiquitin carboxyl-terminal hydrolase 11 (from UniProt P51784 1-963) (enzyme) | binds | 
B1 |  | binds
B2 |  | binds
B3 |  | binds
B4 |  | binds
B5 |  | binds
B6 |  | binds
B7 |  | binds
B8 |  | binds
